Results deposited as PubChem BioAssay AID504764 (Drosophila RNAi Screening Center, 2011)
Test: 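Knock-downs that raise or lower a Notch target reporter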 (primary screen). Cell system: Drosophila Kc167 cells. Reagent: long dsRNA against Drosophila genes. Timing: about 5 days (4 days dsRNA, then 24 h after transfection). Conditions: transfection of constitutively active membrane-tethered Notch lacking the extracellular domain, read 24 h later. Measured: 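Firefly luciferase from an E(spl)m3 reporter with active Notch, plus control-promoter and uninduced reporter wells for normalisation; unnormalised counts, duplicate wells a and b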. Scale: induced reporter light, run 1, well a and induced reporter light, run 1, well b: higher = more light from the Notch target reporter with active Notch; control promoter light, run 1, well a and control promoter light, run 1, well b: higher = more light from the viral control promoter (cell number, transfection, viability); uninduced reporter light, run 1, well a: higher = more light from the Notch target reporter without active Notch. Call rule: 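Hit if the duplicate-averaged log2 ratio of induced to control-promoter light gives a plate-wise z beyond ±2, or induced to uninduced beyond ±1.8; weak-control or discordant-duplicate wells dropped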. Calls: active = modifier hit (raised or lowered Notch signal); inactive = not a hit.
In all, the deposit lists about 22,000 reagents; shown is an unselected part of those that have a named target and a result. Over the whole deposit, 403 (1.9%) are marked active. 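Unnormalised raw counts per well; ratio z-scores behind the hit calls and whether each hit raises or lowers signal are not deposited.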 Reagents against one gene are numbered here. A plus sign joins genes that one reagent is predicted to hit. No sequences are given here. Not stated in the record: the amount of reagent.

| gene | reagent no. | induced reporter light, run 1, well a | induced reporter light, run 1, well b | control promoter light, run 1, well a | control promoter light, run 1, well b | uninduced reporter light, run 1, well a | activity call |
| --- | --- | --- | --- | --- | --- | --- | --- |
| CG17258 (GeneID 33517) | 1 | 2.44e5 | 2.20e5 | 3.28e5 | 2.72e5 | 11480 | inactive |
| Fbxo42 (GeneID 37532) | 1 | 1.89e5 | 2.11e5 | 1.54e5 | 1.63e5 | 13770 | inactive |
| Listericin (GeneID 36183) | 1 | 1.62e5 | 1.81e5 | 2.43e5 | 2.91e5 | 16205 | inactive |
| yellow-d (GeneID 37703) | 1 | 2.04e5 | 1.81e5 | 1.77e5 | 1.89e5 | 14810 | inactive |
| Bap55 (GeneID 36956) | 1 | 43225 | 50255 | 1.16e5 | 1.21e5 | 5975 | active |
| CG8006 (GeneID 38920) | 1 | 96640 | 1.06e5 | 82110 | 23045 | 10370 | inactive |
| CG14269 (GeneID 31312) | 1 | 1.09e5 | 1.10e5 | 1.94e5 | 1.84e5 | 7975 | inactive |
| CG6813 (GeneID 41396) | 1 | 89035 | 96540 | 74400 | 56950 | 6060 | inactive |
| kappaB-Ras + CG30503 | 1 | 1.59e5 | 1.16e5 | 1.97e5 | 1.66e5 | 11770 | inactive |
| kappaB-Ras + CG30503 | 2 | 1.90e5 | 2.03e5 | 2.53e5 | 2.35e5 | 15705 | inactive |
| Cdc45 (GeneID 31052) | 1 | 1.66e5 | 1.97e5 | 1.95e5 | 1.77e5 | 14780 | inactive |
| Cdc45 (GeneID 31052) | 2 | 1.25e5 | 1.30e5 | 2.57e5 | 2.26e5 | 9350 | inactive |
| Or85b (GeneID 41007) | 1 | 95910 | 1.21e5 | 1.31e5 | 1.23e5 | 9190 | inactive |
| CG15011 (GeneID 38518) | 1 | 1.58e5 | 1.45e5 | 1.06e5 | 54700 | 13100 | inactive |
| CG17048 (GeneID 36479) | 1 | 1.24e5 | 1.35e5 | 1.72e5 | 1.86e5 | 10465 | inactive |
| EbpIII (GeneID 49821) | 1 | 1.79e5 | 1.96e5 | 2.14e5 | 2.10e5 | 15338 | inactive |
| CR11700 (retired record) (GeneID 5740245) | 1 | 8880 | 5790 | 13150 | 15538 | 470 | inactive |
| CG32971 (GeneID 318271) | 1 | 1.07e5 | 87440 | 87590 | 1.05e5 | 8200 | inactive |
| CG32568 (GeneID 32659) | 1 | 1.08e5 | 85970 | 98005 | 90910 | 12055 | inactive |
| Polr2J (GeneID 35043) | 1 | 1.14e5 | 1.34e5 | 1.38e5 | 1.42e5 | 7750 | inactive |

Individual results from the list:
Value for CG6813 (GeneID 41396) in “activity call”: inactive
Polr2J (GeneID 35043), activity call = inactive
